Our source for the binding values is paper doi:10.1101/2023.10.03.560675.

Chains of the proteins cited; added tags and fusions are not shown.
UniProt Q15561: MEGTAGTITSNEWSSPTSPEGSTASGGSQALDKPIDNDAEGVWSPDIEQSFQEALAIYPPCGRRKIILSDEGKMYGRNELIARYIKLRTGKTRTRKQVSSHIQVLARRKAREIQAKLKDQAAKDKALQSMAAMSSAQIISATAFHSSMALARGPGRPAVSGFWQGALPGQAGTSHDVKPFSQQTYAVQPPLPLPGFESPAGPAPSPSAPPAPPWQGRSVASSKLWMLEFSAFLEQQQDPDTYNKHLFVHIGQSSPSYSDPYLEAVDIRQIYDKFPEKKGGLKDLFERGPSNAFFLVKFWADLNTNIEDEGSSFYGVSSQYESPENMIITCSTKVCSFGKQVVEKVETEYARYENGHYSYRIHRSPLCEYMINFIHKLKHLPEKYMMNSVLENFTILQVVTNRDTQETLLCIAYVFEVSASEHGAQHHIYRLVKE
UniProt P09874: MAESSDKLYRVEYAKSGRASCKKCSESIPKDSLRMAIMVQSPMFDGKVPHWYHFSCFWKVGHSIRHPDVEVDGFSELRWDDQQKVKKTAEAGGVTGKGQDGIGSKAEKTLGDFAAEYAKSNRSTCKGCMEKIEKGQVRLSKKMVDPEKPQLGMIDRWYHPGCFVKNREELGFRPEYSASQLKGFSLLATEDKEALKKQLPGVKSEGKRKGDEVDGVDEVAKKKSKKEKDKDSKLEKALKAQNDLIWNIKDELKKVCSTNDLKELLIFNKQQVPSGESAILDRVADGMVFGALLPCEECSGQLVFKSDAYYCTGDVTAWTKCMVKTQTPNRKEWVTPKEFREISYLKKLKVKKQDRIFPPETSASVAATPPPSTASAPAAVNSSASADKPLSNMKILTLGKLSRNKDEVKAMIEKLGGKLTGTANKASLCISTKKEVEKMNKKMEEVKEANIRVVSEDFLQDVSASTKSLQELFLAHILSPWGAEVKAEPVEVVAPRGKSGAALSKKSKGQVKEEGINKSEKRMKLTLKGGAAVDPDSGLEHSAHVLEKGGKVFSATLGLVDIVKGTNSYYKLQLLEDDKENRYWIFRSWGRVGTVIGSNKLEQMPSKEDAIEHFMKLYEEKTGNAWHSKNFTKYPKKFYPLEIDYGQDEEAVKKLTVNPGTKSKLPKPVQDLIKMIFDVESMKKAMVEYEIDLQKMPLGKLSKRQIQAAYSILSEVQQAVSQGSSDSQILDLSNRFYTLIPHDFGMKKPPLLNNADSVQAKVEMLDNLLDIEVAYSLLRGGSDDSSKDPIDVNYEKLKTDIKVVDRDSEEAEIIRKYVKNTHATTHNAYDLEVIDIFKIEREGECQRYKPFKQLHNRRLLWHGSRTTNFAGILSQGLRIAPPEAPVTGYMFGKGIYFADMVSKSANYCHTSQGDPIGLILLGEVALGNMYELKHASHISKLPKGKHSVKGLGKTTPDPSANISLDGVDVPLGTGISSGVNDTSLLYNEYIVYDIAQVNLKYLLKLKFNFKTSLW

These are yes or no findings as the source states them, for the method shown. Binding seen in cells or lysates may run through a third protein. Some entries that bind do so weakly or less than the wild type.

The target of this experiment is TEAD4-Myc (human) (UniProt Q15561). The experiment is described as follows: co-IP.

In the case of PARP1 (from UniProt P09874 1-1014), the binding entry is recorded as “binds”.
